The text below walks through data of article PMC4593030.

No constants are given. Whether binding was seen depends on the method and setting. For some assays here: Binding seen in cells or lysates may run through a third protein. Some entries that bind do so weakly or less than the wild type. Where a sequence is shown, tags or fusion partners need not be part of it.

Assay [1] concerns the target T1, FLAG-tagged SETD7 (SET domain containing lysine methyltransferase 7) (human) (UniProt Q8WTS6).
T1 sequence: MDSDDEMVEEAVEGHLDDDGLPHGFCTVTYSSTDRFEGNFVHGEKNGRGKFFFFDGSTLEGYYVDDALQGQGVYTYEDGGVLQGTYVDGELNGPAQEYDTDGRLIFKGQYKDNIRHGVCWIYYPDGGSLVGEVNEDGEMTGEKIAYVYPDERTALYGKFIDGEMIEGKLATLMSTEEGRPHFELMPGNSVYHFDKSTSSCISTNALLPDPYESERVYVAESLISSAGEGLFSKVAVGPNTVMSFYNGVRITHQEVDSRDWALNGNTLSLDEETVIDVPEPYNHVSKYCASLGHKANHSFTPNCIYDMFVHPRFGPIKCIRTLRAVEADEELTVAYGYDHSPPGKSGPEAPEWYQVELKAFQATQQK
Kind of assay: co-IP; Anti-DDK (FLAG) magnetic beads; lysates of HEK293 cells cotransfected with FLAG-tagged SETD7 and untagged NFE2L2, precleared; incubated overnight at 4 °C; western blot with anti-NFE2L2.

Assay [2] deals with T2, FLAG-tagged human NFE2L2 recombinant protein (human) (UniProt Q16236).
T2 sequence: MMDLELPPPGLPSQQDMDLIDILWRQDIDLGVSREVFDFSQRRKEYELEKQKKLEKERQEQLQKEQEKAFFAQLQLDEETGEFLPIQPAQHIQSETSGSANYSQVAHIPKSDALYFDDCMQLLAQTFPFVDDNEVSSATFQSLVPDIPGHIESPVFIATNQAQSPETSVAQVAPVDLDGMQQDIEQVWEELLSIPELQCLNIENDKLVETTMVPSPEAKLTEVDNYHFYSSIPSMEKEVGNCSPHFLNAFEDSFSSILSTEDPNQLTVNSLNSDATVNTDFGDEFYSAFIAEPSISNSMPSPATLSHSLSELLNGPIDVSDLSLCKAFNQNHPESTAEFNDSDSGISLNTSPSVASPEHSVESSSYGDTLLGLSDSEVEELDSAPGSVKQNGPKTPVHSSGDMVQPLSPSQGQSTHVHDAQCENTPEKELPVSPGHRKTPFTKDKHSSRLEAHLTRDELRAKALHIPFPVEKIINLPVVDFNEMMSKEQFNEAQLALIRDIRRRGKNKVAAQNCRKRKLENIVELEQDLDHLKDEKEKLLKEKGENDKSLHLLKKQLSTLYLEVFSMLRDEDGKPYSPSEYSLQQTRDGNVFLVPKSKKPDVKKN
Kind of assay: pull-down; FLAG-tagged NFE2L2 held on Anti-DDK magnetic beads (1 hour, room temperature); GST-tagged SETD7 added for another hour at room temperature; 4 washes; western blot with anti-SETD7 and anti-NFE2L2; cell-free; both purified.

B1: NFE2L2 (nuclear factor erythroid 2-like 2), untagged (protein, UniProt Q16236 1-605)
chain: T2 sequence
Regarding B1, the binding entry in assay [1] was “binds”.

B2: GST-tagged human SETD7 recombinant protein (enzyme, UniProt Q8WTS6 1-366)
chain: T1 sequence
With B2, in assay [2], the binding entry was “binds”.
